Experimental data from publication PMC4669748.
No constants are given. Whether binding was seen depends on the method and setting. For part of these data: In cells and extracts the contact can be indirect. Some binding calls cover weakened binding; strength is not graded here. For part of these data: Tags and fused reporters may be left off the sequences shown.

By UniProt entry, the sequences of proteins in these tests, tags left out.
UniProt P31749: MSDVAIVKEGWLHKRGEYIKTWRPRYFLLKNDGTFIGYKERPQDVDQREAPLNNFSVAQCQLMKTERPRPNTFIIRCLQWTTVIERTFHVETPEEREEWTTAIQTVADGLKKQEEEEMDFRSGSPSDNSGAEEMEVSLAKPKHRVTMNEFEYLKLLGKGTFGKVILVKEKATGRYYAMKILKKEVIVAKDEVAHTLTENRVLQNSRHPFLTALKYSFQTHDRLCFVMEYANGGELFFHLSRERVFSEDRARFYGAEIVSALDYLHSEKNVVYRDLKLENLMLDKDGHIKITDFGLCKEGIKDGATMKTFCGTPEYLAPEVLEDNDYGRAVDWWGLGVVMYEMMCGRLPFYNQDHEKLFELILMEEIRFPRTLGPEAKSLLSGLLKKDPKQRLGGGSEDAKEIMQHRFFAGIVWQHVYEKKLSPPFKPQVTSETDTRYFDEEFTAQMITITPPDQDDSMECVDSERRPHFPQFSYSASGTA

How the values were obtained:
[1] = molecular target: GST fused with full-length AKT (UniProt P31749); assay: pull-down; GST pull-down with purified recombinant His-BTG3 and GST or GST fused with full-length or truncated AKT; both purified
[2] = molecular target: GST fused with full-length AKT (UniProt P31749); assay: pull-down; GST pull-down of His-tagged full-length BTG3 by GST-AKT with a 20 x molar excess of a synthetic peptide as competitor; both purified
[3] = molecular target: endogenous AKT (human (endogenous in 293T)) (UniProt P31749); assay: co-IP; endogenous proteins from 293 T lysates, immunoprecipitated with anti-BTG3 or anti-AKT (no. 610860; BD Biosciences) antibody
HA-tagged AKT, P31749 = assay: co-IP; 293 T cells transfected with HA-AKT, with or without myc-BTG3; serum stimulation; PDK1 blotted in immunoprecipitated HA-AKT, or AKT in immunoprecipitated PDK1; settings: remark: other sources report otherwise
HA-tagged AKT = HA-tagged AKT (UniProt P31749); assay: as above

B1: His-tagged, full-length BTG3 protein (protein, UniProt Q14201 1-252)
chain: MKNEIAAVVFFFTRLVRKHDKLKKEAVERFAEKLTLILQEKYKNHWYPEKPSKGQAYRCIRVNKFQRVDPDVLKACENSCILYSDLGLPKELTLWVDPCEVCCRYGEKNNAFIVASFENKDENKDEISRKVTRALDKVTSDYHSGSSSSDEETSKEMEVKPSSVTAAASPVYQISELIFPPLPMWHPLPRKKPGMYRGNGHQNHYPPPVPFGYPNQGRKNKPYRPIPVTWVPPPGMHCDRNHWINPHMLAPH
Q: For B1, which binding [1] is on record?
A: binds

Q: What about the binding [2] of the same binder?
A: binds

Q: How did the binding [2] turn out when NHWINPHMLAPH (peptide, UniProt Q14201 241-252) [C5-derived peptide spanning the C-terminal half of C5 (C5-C)] was run?
A: binds

B2: endogenous BTG3 (protein, UniProt Q14201 1-252)
chain: MKNEIAAVVFFFTRLVRKHDKLKKEAVERFAEKLTLILQEKYKNHWYPEKPSKGQAYRCIRVNKFQRVDPDVLKACENSCILYSDLGLPKELTLWVDPCEVCCRYGEKNNAFIVASFENKDENKDEISRKVTRALDKVTSDYHSGSSSSDEETSKEMEVKPSSVTAAASPVYQISELIFPPLPMWHPLPRKKPGMYRGNGHQNHYPPPVPFGYPNQGRKNKPYRPIPVTWVPPPGMHCDRNHWINPHMLAPH
Q: B2 was tested. Which binding [3] did it give?
A: binds

B3: PDK1 (phosphoinositide-dependent kinase-1), O15530 1-556 (protein)
chain: MARTTSQLYDAVPIQSSVVLCSCPSPSMVRTQTESSTPPGIPGGSRQGPAMDGTAAEPRPGAGSLQHAQPPPQPRKKRPEDFKFGKILGEGSFSTVVLARELATSREYAIKILEKRHIIKENKVPYVTRERDVMSRLDHPFFVKLYFTFQDDEKLYFGLSYAKNGELLKYIRKIGSFDETCTRFYTAEIVSALEYLHGKGIIHRDLKPENILLNEDMHIQITDFGTAKVLSPESKQARANSFVGTAQYVSPELLTEKSACKSSDLWALGCIIYQLVAGLPPFRAGNEYLIFQKIIKLEYDFPEKFFPKARDLVEKLLVLDATKRLGCEEMEGYGPLKAHPFFESVTWENLHQQTPPKLTAYLPAMSEDDEDCYGNYDNLLSQFGCMQVSSSSSSHSLSASDTGLPQRSGSNIEQYIHDLDSNSFELDLQFSEDEKRLLLEKQAGGNPWHQFVENNLILKMGPVDKRKGLFARRRQLLLTEGPHLYYVDPVNKVLKGEIPWSQELRPEAKNFKTFFVHTPNRTYYLMDPSGNAHKWCRKIQEVWRQRYQSHPDAAVQ
Q: Which binding (HA-tagged AKT, P31749) does the source give for B3 here?
A: binds

B4: myc-tagged BTG3 (protein, UniProt Q14201 1-252)
chain: MKNEIAAVVFFFTRLVRKHDKLKKEAVERFAEKLTLILQEKYKNHWYPEKPSKGQAYRCIRVNKFQRVDPDVLKACENSCILYSDLGLPKELTLWVDPCEVCCRYGEKNNAFIVASFENKDENKDEISRKVTRALDKVTSDYHSGSSSSDEETSKEMEVKPSSVTAAASPVYQISELIFPPLPMWHPLPRKKPGMYRGNGHQNHYPPPVPFGYPNQGRKNKPYRPIPVTWVPPPGMHCDRNHWINPHMLAPH
Q: How did the binding (HA-tagged AKT) turn out when B4 was run?
A: binds
